{"source": "PubChem BioAssay AID1224830 | NIAID, 2016", "purpose": "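Regulators of TLR4 signalling towards TNF-alpha in macrophage-like cells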 (primary screen)", "cell system": "human THP-1 monocytic leukaemia cells, TNF dual-luciferase reporter clone, PMA-differentiated to macrophage-like cells", "reagents": "siRNA pool against human genes, 50 nM", "duration": "LPS for 4 h, given about 3 days after siRNA transfection", "treatment": "bacterial LPS (TLR4 ligand), 10 ng/ml", "measurement": "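TNF firefly reporter luminescence divided by renilla, normalised to the plate median, then turned into a robust z-score for each replicate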", "reading the numbers": "TNF reporter robust z-score: higher = stronger TNF reporter response to LPS", "hit rule": "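a well is active when its z-score exceeds 2.8 or falls below -1.5; control wells carry no call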", "note": "Here is one part, drawn at random, of about 18,000 deposited reagents. Over the whole deposit, about 2,900 (16%) got an active call. 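Calls are made per well; low scores hint the gene aids the LPS response, high scores that it dampens it.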 Repeated entries: four replicate wells of each siRNA pool."}
{"target":"EXTL1 (exostosin like glycosyltransferase 1)","TNF reporter robust z-score":-0.26,"call":"inactive"}
{"target":"EXTL1 (exostosin like glycosyltransferase 1)","TNF reporter robust z-score":1.04,"call":"inactive"}
{"target":"EXTL1 (exostosin like glycosyltransferase 1)","TNF reporter robust z-score":0.32,"call":"inactive"}
{"target":"EXTL1 (exostosin like glycosyltransferase 1)","TNF reporter robust z-score":-0.31,"call":"inactive"}
{"target":"ADAMTS4 (ADAM metallopeptidase with thrombospondin type 1 motif 4)","TNF reporter robust z-score":0.33,"call":"inactive"}
{"target":"ADAMTS4 (ADAM metallopeptidase with thrombospondin type 1 motif 4)","TNF reporter robust z-score":0.54,"call":"inactive"}
{"target":"ADAMTS4 (ADAM metallopeptidase with thrombospondin type 1 motif 4)","TNF reporter robust z-score":0.01,"call":"inactive"}
{"target":"ADAMTS4 (ADAM metallopeptidase with thrombospondin type 1 motif 4)","TNF reporter robust z-score":-0.98,"call":"inactive"}
{"target":"CRYBB2 (crystallin beta B2)","TNF reporter robust z-score":-0.26,"call":"inactive"}
{"target":"CRYBB2 (crystallin beta B2)","TNF reporter robust z-score":0.72,"call":"inactive"}
{"target":"CRYBB2 (crystallin beta B2)","TNF reporter robust z-score":0.43,"call":"inactive"}
{"target":"CRYBB2 (crystallin beta B2)","TNF reporter robust z-score":0.15,"call":"inactive"}

2 entries from above, sorted by “TNF reporter robust z-score”, high to low:
{"target":"ADAMTS4 (ADAM metallopeptidase with thrombospondin type 1 motif 4)","TNF reporter robust z-score":0.54,"call":"inactive"}
{"target":"ADAMTS4 (ADAM metallopeptidase with thrombospondin type 1 motif 4)","TNF reporter robust z-score":0.33,"call":"inactive"}

The results go on.
{"target":"MTERF1 (mitochondrial transcription termination factor 1)","TNF reporter robust z-score":0.11,"call":"inactive"}
{"target":"MTERF1 (mitochondrial transcription termination factor 1)","TNF reporter robust z-score":0.34,"call":"inactive"}
{"target":"MTERF1 (mitochondrial transcription termination factor 1)","TNF reporter robust z-score":-0.95,"call":"inactive"}
{"target":"MTERF1 (mitochondrial transcription termination factor 1)","TNF reporter robust z-score":-0.61,"call":"inactive"}
{"target":"GLT8D2 (glycosyltransferase 8 domain containing 2)","TNF reporter robust z-score":-0.79,"call":"inactive"}
{"target":"GLT8D2 (glycosyltransferase 8 domain containing 2)","TNF reporter robust z-score":0.48,"call":"inactive"}
{"target":"GLT8D2 (glycosyltransferase 8 domain containing 2)","TNF reporter robust z-score":-0.31,"call":"inactive"}
{"target":"GLT8D2 (glycosyltransferase 8 domain containing 2)","TNF reporter robust z-score":0.16,"call":"inactive"}
